From paper PMC4323012 come the findings set out here.

Chains of the proteins cited; added tags and fusions are not shown.
UniProt Q01094: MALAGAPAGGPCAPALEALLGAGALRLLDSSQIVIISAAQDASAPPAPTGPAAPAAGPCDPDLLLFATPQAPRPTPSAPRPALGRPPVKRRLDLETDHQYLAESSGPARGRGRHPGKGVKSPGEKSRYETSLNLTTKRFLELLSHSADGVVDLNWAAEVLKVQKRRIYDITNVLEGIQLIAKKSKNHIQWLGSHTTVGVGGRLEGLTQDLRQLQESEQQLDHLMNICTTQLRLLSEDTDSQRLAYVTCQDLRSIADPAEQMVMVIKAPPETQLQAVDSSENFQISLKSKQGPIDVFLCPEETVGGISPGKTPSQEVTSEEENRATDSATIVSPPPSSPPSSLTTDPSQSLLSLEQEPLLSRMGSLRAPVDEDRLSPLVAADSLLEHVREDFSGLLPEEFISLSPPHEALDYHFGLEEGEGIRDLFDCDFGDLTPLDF
UniProt Q9UDV7: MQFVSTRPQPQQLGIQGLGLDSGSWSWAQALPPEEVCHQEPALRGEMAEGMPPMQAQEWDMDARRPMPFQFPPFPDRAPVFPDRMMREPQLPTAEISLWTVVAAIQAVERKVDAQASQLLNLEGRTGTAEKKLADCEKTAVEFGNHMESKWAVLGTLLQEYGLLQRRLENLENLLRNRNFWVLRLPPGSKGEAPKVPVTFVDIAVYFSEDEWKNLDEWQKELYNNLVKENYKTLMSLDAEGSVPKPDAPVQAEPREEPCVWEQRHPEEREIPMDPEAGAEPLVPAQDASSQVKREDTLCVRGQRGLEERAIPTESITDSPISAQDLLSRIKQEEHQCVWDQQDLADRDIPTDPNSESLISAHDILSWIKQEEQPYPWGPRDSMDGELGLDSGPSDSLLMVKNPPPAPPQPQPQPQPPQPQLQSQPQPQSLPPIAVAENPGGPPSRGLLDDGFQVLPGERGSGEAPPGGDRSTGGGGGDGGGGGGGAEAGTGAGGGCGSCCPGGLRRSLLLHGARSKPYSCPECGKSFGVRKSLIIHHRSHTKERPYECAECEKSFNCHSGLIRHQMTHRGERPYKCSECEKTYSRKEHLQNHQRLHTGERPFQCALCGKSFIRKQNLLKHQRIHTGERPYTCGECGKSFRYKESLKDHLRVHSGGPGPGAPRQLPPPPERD

These are yes or no findings as the source states them, for the method shown. In cells and extracts the contact can be indirect. Some entries that bind do so weakly or less than the wild type.

For assay [1], the target named is HA-E2F1 (from pSG5.HA-E2F1) (UniProt Q01094). Briefly: co-IP; 293T cells transfected with pSG5.HA-E2F1 and pFLAG.CMV4-ZNF282; lysates immunoprecipitated with anti-E2F1 antibody or control normal IgG and protein G Dynabeads, immunoblot with anti-FLAG and anti-E2F1. A general note: In western blotting, separated proteins are transferred to a membrane and probed.
Assay [2] deals with E2F1, endogenous in TE10 cells (human (endogenous in TE10)) (UniProt Q01094). Briefly: co-IP; endogenous proteins; TE10 cell lysates immunoprecipitated with anti-E2F1 antibody or control normal IgG and protein G Dynabeads, immunoblot.
The target in assay [3] is GST-E2F1 (recombinant, from pGEX-4T-1) (UniProt Q01094). Briefly: pull-down; in vitro translated HA-tagged ZNF282 incubated with immobilized recombinant GST-E2F1; bound proteins detected by immunoblot with anti-HA antibody; only the target purified.

Turning to “FLAG-ZNF282 (from pFLAG.CMV4-ZNF282) (from UniProt Q9UDV7 1-671)”, the binding result in assay [1] is given as “binds”.

For the substance “Zinc finger protein 282 (ZNF282), endogenous in TE10 cells (from UniProt Q9UDV7 1-671)”, in assay [2], the binding entry is “binds”.

With “HA-tagged ZNF282, in vitro translated (from pSG5.HA-ZNF282) (from UniProt Q9UDV7 1-671)”, in assay [3], the binding entry is given as “binds”.
